PubChem BioAssay AID493246, Drosophila RNAi Screening Center – 2011
The deposit covers about 21,000 reagents; below is a random part of those that have a named target and a result. Of all reagents, 429 (2%) were called active. 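Values are raw and not normalised between plates; calls rest on per-plate z-scores that were not deposited.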 Entries without a mark were called inactive. The numbers tell different reagents against one gene apart. Names joined by + are all predicted targets of the reagent. No sequences are given here. The record does not give: the amount of reagent, the time to read-out.

- Purpose: 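Genome-wide search for dsRNAs that reduce cell number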 (primary screen)
- Cells: Drosophila Kc and S2R+ cells
- Reagents: long dsRNA against Drosophila genes
- Read-out: 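Raw, unnormalised count of remaining cells in each well; per-plate z-scores of cell number underlie the calls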
- Reading the numbers: Kc cell number and S2R+ cell number: higher = more cells remaining
- Rule for the call: 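Active when the per-plate z-score of cell number is 3 or more in the direction of fewer cells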

Depletion of CG18748 resulted in: Kc cell number, rep 1 = 1.59e6; Kc cell number, rep 2 = 1.80e6; S2R+ cell number, rep 1 = 1.38e6; S2R+ cell number, rep 2 = 1.53e6. With knock-down of CG8086 #1, the screen gave Kc cell number, rep 1 = 1.39e6; Kc cell number, rep 2 = 1.65e6; S2R+ cell number, rep 1 = 4.39e5; S2R+ cell number, rep 2 = 3.06e5. After knock-down of CG8086 #2, the screen gave Kc cell number, rep 1 = 1.49e6; Kc cell number, rep 2 = 1.59e6; S2R+ cell number, rep 1 = 1.22e6; S2R+ cell number, rep 2 = 1.33e6. Silencing of scpr-A + scpr-C + scpr-B resulted in: Kc cell number, rep 1 = 1.50e6; Kc cell number, rep 2 = 1.45e6; S2R+ cell number, rep 1 = 1.29e6; S2R+ cell number, rep 2 = 1.37e6. Cyp309a2 gave Kc cell number, rep 1 = 1.85e6; Kc cell number, rep 2 = 1.83e6; S2R+ cell number, rep 1 = 1.11e6; S2R+ cell number, rep 2 = 1.23e6. Against sut1 the deposit lists Kc cell number, rep 1 = 1.39e6; Kc cell number, rep 2 = 1.49e6; S2R+ cell number, rep 1 = 1.06e6; S2R+ cell number, rep 2 = 1.07e6.

Silencing of CG13564 gave: Kc cell number, rep 1 = 1.53e6; Kc cell number, rep 2 = 1.60e6; S2R+ cell number, rep 1 = 1.22e6; S2R+ cell number, rep 2 = 1.31e6. For CG3301 the deposit lists Kc cell number, rep 1 = 1.55e6; Kc cell number, rep 2 = 1.61e6; S2R+ cell number, rep 1 = 1.33e6; S2R+ cell number, rep 2 = 1.41e6. After knock-down of CG13625, the record shows Kc cell number, rep 1 = 1.45e6; Kc cell number, rep 2 = 1.57e6; S2R+ cell number, rep 1 = 9.49e5; S2R+ cell number, rep 2 = 1.07e6. knk scored Kc cell number, rep 1 = 1.77e6; Kc cell number, rep 2 = 1.74e6; S2R+ cell number, rep 1 = 1.37e6; S2R+ cell number, rep 2 = 1.51e6. For CG10904 the deposit lists Kc cell number, rep 1 = 1.64e6; Kc cell number, rep 2 = 1.69e6; S2R+ cell number, rep 1 = 1.44e6; S2R+ cell number, rep 2 = 1.57e6. After knock-down of CG13842, the record shows Kc cell number, rep 1 = 1.75e6; Kc cell number, rep 2 = 1.73e6; S2R+ cell number, rep 1 = 1.05e6; S2R+ cell number, rep 2 = 1.16e6.

Depletion of Dh31-R #1 resulted in: Kc cell number, rep 1 = 1.49e6; Kc cell number, rep 2 = 1.63e6; S2R+ cell number, rep 1 = 1.21e6; S2R+ cell number, rep 2 = 1.34e6. Dh31-R #2 gave Kc cell number, rep 1 = 1.60e6; Kc cell number, rep 2 = 1.66e6; S2R+ cell number, rep 1 = 1.35e6; S2R+ cell number, rep 2 = 1.49e6.
